According to publication PMC9356058, “Homocysteine-targeting compounds as a new treatment strategy for diabetic wounds via inhibition of the histone methyltransferase SET7/9” (Experimental & Molecular Medicine, 2022):
These are yes or no findings as the source states them, for the method shown. Binding seen in cells or lysates may run through a third protein. Some results given as binding are weak or reduced against the parent protein; the word gives no strength.

Amino acid sequences for entries named in this document (tags omitted).
UniProt Q16665: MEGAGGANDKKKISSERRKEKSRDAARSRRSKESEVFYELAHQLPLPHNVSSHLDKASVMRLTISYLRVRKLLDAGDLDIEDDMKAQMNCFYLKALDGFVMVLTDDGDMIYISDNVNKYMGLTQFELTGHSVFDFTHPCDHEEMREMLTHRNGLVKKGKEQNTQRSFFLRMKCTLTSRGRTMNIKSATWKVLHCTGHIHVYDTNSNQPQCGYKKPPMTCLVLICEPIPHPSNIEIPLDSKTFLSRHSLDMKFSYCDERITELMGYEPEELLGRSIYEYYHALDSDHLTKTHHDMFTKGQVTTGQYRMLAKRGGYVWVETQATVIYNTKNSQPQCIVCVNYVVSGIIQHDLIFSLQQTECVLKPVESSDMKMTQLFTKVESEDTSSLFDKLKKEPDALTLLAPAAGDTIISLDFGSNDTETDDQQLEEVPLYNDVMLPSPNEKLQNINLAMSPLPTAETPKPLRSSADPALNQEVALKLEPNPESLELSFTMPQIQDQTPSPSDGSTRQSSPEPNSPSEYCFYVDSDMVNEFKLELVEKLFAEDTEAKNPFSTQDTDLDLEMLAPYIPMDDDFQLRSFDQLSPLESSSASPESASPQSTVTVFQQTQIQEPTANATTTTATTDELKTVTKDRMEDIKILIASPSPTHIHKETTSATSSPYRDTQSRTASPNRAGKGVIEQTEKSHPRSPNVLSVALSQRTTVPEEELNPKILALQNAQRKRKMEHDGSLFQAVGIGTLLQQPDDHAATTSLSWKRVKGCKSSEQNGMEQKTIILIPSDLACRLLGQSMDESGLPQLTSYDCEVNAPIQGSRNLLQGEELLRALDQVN

Target: T1, SET domain containing lysine methyltransferase 7 (SET7/9) (human (endogenous in HUVEC)) (UniProt Q8WTS6)
T1 sequence: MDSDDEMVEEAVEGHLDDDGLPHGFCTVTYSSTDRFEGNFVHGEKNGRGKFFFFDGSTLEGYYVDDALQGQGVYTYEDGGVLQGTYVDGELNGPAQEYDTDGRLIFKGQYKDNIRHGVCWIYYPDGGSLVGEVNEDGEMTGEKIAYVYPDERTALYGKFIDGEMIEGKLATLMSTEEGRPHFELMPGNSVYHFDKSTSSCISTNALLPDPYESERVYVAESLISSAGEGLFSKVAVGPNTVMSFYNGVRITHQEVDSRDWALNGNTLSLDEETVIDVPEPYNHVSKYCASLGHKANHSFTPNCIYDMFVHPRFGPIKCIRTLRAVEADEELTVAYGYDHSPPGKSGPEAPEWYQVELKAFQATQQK
Test: co-IP; 100 μg lysate of hyperglycemia-induced HUVECs treated with Set7_1a or DMSO for 24 h under hypoxia; incubated with 10 μg SET7/9 antibody in 500 μL cell lysis buffer at 4 °C for 12 h; magnetic beads; blots with anti-SET7/9, anti-methyl lysine and anti-HIF-1α

hypoxia-inducible factor-1 alpha (HIF-1α) (from UniProt Q16665 1-826)
binding: binds
